PubChem BioAssay AID602196 | INSERM, 2012
Screen: 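Modifiers of cisplatin sensitivity in A549 cells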. System: human A549 lung cancer cells. Reagent: siRNA pair against human genes. Timing: 48 h transfection before cisplatin; time from cisplatin to read-out not stated. Challenge: cisplatin at a dose killing half of control-siRNA cells; exact dose and duration not given. Detection: 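Shift in cisplatin death relative to control siRNA, from -50 (all cells die) to +50 (no cells die); siRNAs harmful on their own scored 0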. Reading the numbers: two-siRNA summed score (-2 to +2): higher = both siRNAs protect from cisplatin killing; -2 means both sensitise. Rule for the call: 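siRNAs harmful alone (LDH or WST-1) get 0; others get +1 for less and -1 for more cisplatin killing; genes are active when the two siRNAs give the same sign, summing to ±2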. Calls: active = both siRNAs shift cisplatin killing the same way; inactive = no consistent shift, or siRNA harmful alone.
In all, the deposit lists about 23,000 reagents; below is an unselected part. 455 of all reagents (2%) count as active. 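Active includes both protection and sensitisation; some change values fall well beyond the stated -50 to +50 range.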 Further read-outs or replicates are left out here. Not stated in the record: the amount of reagent.

no.	gene	two-siRNA summed score (-2 to +2)	outcome
1	FARSB	1	inactive
2	PTBP1	0	inactive
3	SYN2	0	inactive
4	LOC440235	0	inactive
5	CXorf38	-1	inactive
6	AMOTL2	1	inactive
7	RGS13	-1	inactive
8	LOC390919	0	inactive
9	GFUS	0	inactive
10	LOC345537	0	inactive
11	TRIP6	0	inactive
12	ARHGEF10L	0	inactive
13	IRAK2	0	inactive
14	IGSF10	1	inactive
15	PPIE	0	inactive
16	TYROBP	-1	inactive
17	MOB2	0	inactive
18	SYTL3	0	inactive
19	HLF	1	inactive
20	HNRNPAB	0	inactive
21	KIAA1912	0	inactive
22	MARCHF9	0	inactive
23	RBM26	1	inactive
24	PCBP4	1	inactive
25	LOC442731	0	inactive
26	ZNF28	1	inactive
27	CDON	0	inactive
28	CASP1	-2	active
29	DAOA	0	inactive
30	RTP3	0	inactive
31	ITPRID2	0	inactive
32	RNF13	-1	inactive
33	HOXD1	0	inactive
34	TMEM158	0	inactive
35	RNFT1	0	inactive
36	LOC442228	0	inactive
37	KIAA0930	0	inactive
38	GALNT16	0	inactive
39	EXOC3L1	0	inactive
40	VARS1	0	inactive
41	HMGCR	0	inactive
42	AFG2A	0	inactive
43	APPBP2	1	inactive
44	MTHFD1L	0	inactive
45	TCEAL5	0	inactive
46	NR5A1	-1	inactive
47	LOC342659	-1	inactive
48	ZNF658	0	inactive
49	PRPF38A	0	inactive
50	ZYG11B	0	inactive
51	REPS2	0	inactive
52	HACD2	0	inactive
53	LRRC36	0	inactive
54	C6orf47	0	inactive
55	OR10AG1	0	inactive
56	LOC403312	0	inactive
57	NDUFAF4P2	0	inactive
58	LOC441171	0	inactive
59	MED21	-1	inactive
60	EHD1	0	inactive
61	BMP15	-1	inactive
62	LOC440457	0	inactive
63	LOC441805	0	inactive
64	LOC285026	0	inactive
65	HDGFL2	1	inactive
66	PPL	0	inactive
67	UBTF	0	inactive
68	ANO4	0	inactive
69	SLC25A30	-1	inactive
70	FSCN3	0	inactive
71	CELA3B	0	inactive
72	PLS1	0	inactive
73	EMC2	0	inactive

Copied from the entries so far (11 entries):
no.	gene	two-siRNA summed score (-2 to +2)	outcome
59	MED21	-1	inactive
60	EHD1	0	inactive
61	BMP15	-1	inactive
62	LOC440457	0	inactive
63	LOC441805	0	inactive
64	LOC285026	0	inactive
65	HDGFL2	1	inactive
66	PPL	0	inactive
67	UBTF	0	inactive
68	ANO4	0	inactive
69	SLC25A30	-1	inactive
